Laboratory results published in patent publication US11096923B2, “Pharmaceutical composition containing polymyxin B/trimethoprim based therapeutics” (University of Rochester, priority 2016, dated 2021).
For part of these data: At least one structure is not confirmed: it was looked up by name or label, or the drawing left a doubt. Some results were stated once for a whole list of compounds, not compound by compound.

Legend:
[1] = system: P. aeruginosa strain PA01; assay type: cell-based, Pseudomonas aeruginosa; settings: 1×MIC, laser microbial growth monitor over 40 hours
Description: Spontaneous resistance to the indicated test agent(s) was measured for P. aeruginosa strain PA01 and S. aureus strain UAMS-1 using two liquid culture approaches. […] Growth was measured using the BacterioScan s216Dx laser microbial growth monitor, with optical measurements taken every 3 minutes over 40 hours. Following 40 hours, samples were plated for to measure viable colony forming units and re-tested for drug susceptibility.
To determine if these colonies represented untreated cells vs. resistant cells, 8 individual colonies from each treatment condition were randomly selected and tested for MICs.
Using an automated laser microbial growth monitor, the optical profiles of these cultures were measured continuously over time. […] Again 8 colonies were selected at random from each treatment group.

[2] = system: P. aeruginosa biofilm; set-up: key: Killing (+) of established biofilms; settings: established biofilms; adenylate kinase reporter; Blanchard et al., 2016; cited from earlier work; further: test concentration or dose not given here

Structure (SMILES) | time until growth of treated culture [1] [h] | P. aeruginosa biofilm AK Signal [2]
CO[C@H]1/C=C/O[C@@]2(C)Oc3c(C)c(O)c4c(O)c(c(/C=N/N5CCN(C)CC5)c(O)c4c3C2=O)NC(=O)/C(C)=C\C=C\[C@H](C)[C@H](O)[C@@H](C)[C@@H](O)[C@@H](C)[C@H](OC(C)=O)[C@@H]1C [Rifampicin, rifampicin] | 10 to 12 | +
C[C@H]1COc2c(N3CCN(C)CC3)c(F)cc3c(=O)c(C(=O)O)cn1c23 [Levofloxacin, levofloxacin] |  | +
